Results are given in words; binding and its absence hold for the method and conditions named. In cells and extracts the contact can be indirect. Some results given as binding are weak or reduced against the parent protein; the word gives no strength.
Target: glial fibrillary acidic protein (rat (endogenous in supraoptic nucleus tissue)) (UniProt P47819)
Test: co-IP; anti-GFAP antibody (sc-33673) added to 600 µg of precleared SON tissue lysate, overnight at 4 °C, captured on protein A/G magnetic beads, Western blot; brain slices treated beforehand as control, OGD, TGN-020 (10 µM) or OGD + TGN-020

The chains behind the UniProt entries cited, without tags or fusion partners.
UniProt P47819: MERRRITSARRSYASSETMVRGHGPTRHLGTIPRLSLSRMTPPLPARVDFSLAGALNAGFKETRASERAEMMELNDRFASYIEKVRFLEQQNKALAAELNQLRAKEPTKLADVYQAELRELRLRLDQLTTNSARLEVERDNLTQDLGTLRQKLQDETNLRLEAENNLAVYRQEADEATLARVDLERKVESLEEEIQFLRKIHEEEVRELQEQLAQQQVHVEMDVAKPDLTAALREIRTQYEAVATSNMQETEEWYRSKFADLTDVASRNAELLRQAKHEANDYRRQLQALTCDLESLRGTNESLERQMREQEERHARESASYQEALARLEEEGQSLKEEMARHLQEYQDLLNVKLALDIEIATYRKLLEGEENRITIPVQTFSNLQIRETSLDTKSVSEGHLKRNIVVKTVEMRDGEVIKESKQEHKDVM
UniProt P47863: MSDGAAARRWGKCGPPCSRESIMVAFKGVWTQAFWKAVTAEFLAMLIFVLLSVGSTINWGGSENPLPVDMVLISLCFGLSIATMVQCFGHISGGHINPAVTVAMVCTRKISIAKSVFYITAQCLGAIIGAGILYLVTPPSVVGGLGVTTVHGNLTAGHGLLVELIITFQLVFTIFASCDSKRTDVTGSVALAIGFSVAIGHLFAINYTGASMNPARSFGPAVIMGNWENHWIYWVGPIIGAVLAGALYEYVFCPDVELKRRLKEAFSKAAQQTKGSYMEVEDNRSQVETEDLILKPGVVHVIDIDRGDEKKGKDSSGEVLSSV

binding: binds
Substance: aquaporin 4 (from UniProt P47863 1-323)
